Results: patent US12370235B2 (University of Saskatchewan, priority 2021, dated 2025)
End groups of sequences in plain letters are not given here. HELM strings list residues between dots; [ac] is acetyl, [am] amide, other brackets name non-standard units. Ends that are not written are not given here.

Test: peptide made by a vendor
Settings: whole synthesis

Point of comparison: “(MLTMAAD)IISTIV ? FVKLIA ? TIAKFMK (IISTIVEFVKLIAETIAKFMK; S. cornubiensis)”, “crude purity (method not given)” value 94.4%. Against it:
- (AQD)IISTIG ? LVKWII ? TVNKFTK — lower, 89.5%
- (MAAD)IISTIG ? LIKWII ? TVKKFKK (IISTIGDLIKWIIDTVKKFKK; S. saccharolyticus) — lower, 70.8%
- (MAAD)IISTIS ? LVKWII ? TVNKFTK — lower, 85.1%
- (MAAN)IISTIG ? LVKWII ? TVNKFKK — lower, 91.2%
- (MAGD)IIGTIN ? LIKWIA ? TV ? KYKK (IIGTINDLIKWIADTVEKYKK; S. massiliensis) — lower, 82.8%
- (MS)IIAGIIKFIKGLI ? KFTGK (IIAGIIKFIKGLIEKFTGK) — lower, 72.1%
- (MTKD)IV ? TVGGLVKWIL ? TVKKFA (IVETVGGLVKWILDTVKKFA; S. auricularis) — lower, 86.7%

Point of comparison: TVKVLVKWILKVVAKFA, “purity (crude or final not stated)” value 84.5%. Against it:
- AVGGLVKWILDTVKKFA — higher, 97.1%
- H-MTKDIVETVGGLVKWILDTVKKFA — higher, 95.1%
- PEPTIDE1{[For].M.T.K.D.I.V.E.T.V.G.G.L.V.K.W.I.L.D.T.V.K.K.F.A}$$$$V2.0 — higher, 97.5%
- TAGGLVKWILDTVKKFA — higher, 97.8%
- TV ? LVKWIL ? VAKF ? — higher, 97.4%
- TVAGLVKWILATVKKFA — higher, 94.2%
- TVAGLVKWILDTVKKFA — lower, 83.1%
- TVDGLVKWILATVKKFA — higher, 96.1%
- TVGALVKWILDTVKKFA — higher, 98.4%
- TVGGLVKWIL ? TVKKFA-NH2 [listing 1 of 2 here] — higher, 98.6%
- TVGGLVKWIL ? TVKKFA-NH2 [listing 2 of 2 here] — higher, 96.3%
- TVGGLVKWIL ? TVKKFA-NH2 (TVGGLVKWILKTVKKFA) — higher, 97.0%
- TVGGLVKWILAAVKKFA — higher, 95.3%
- TVGGLVKWILATVKKFA-NH2 — higher, 97.4%
- TVGGLVKWILDTFKKFA — higher, 88.9%
- TVGGLVKWILDTVKKFA — higher, 98.3%
- TVGGLVKWILDTVKKFA-NH2 — higher, 96.3%
- TVGGLVKWILDTVKKFI — lower, 83.4%
- TVGGLVKWILDTVKKFK — lower, 84.4%
- TVGGLVKWILDTVKKFW — higher, 95.5%
- TVGGLVKWILDVVKKFA — higher, 88.1%
- TVGGLVKWILDWVKKFA — higher, 93.2%
- TVGGLVKWILKAVKKFA — higher, 88.0%
- TVGGLVKWILKTVKKFA — higher, 91.2%
- TVGGLVKWILKTVKKFA-NH2 — higher, 95.1%
- TVGGLVKWILNTVKKFA — higher, 99.9%
- TVGGLVXWILATVKKFA — higher, 95.3%
- TVGVLVKWILDTVKKFA — lower, 83.7%
- TVGVLVKWILNVVAKFA — lower, 82.5%
- TVKALVKWILKTVAKFA — higher, 95.2%
- TVKALVKWILKTVAKFW — higher, 96.3%
- TVKFLVKWILKWVAKFA — higher, 96.4%
- TVKGLVKWILATVKKFA — higher, 93.7%
- TVKGLVKWILNVVKKFA — higher, 96.0%
- TVKGLYKWILNVVKKFA-NH2 — higher, 95.9%
- TVKKLVKWILKTVKKFA — higher, 92.3%
- TVRALVKWILRTVAKFA — higher, 97.3%
- TVRALVRWILRTVARFA — higher, 88.8%
